# Reference: the supplement of paper PMC8728848
# Some of the results follow.
# Columns and labels:
# Assay in all cases: glycan array binding signal (z-score within array); higher = stronger binding
# Details in all cases: glycan notation: IUPAC condensed, linker removed
# [1] = biological target: Neu5Ac(a2-6)Gal(b1-4)GlcNAc(b1-3)Gal(b1-4)GlcNAc(b1-3)GalNAc
# In short: (§1)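 The binding signal is a Z-score computed within each array. Data were drawn from 3228 arrays in the Consortium for Functional Glycomics database, restricted to those with a known protein sequence. Scores were averaged over arrays of the same protein sequence at different concentrations or buffers, and over linkers, and negative values can be taken as non-binding.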
# [2] = biological target: Neu5Ac(a2-6)Gal(b1-4)GlcNAc(b1-3)Gal(b1-4)GlcNAc(b1-3)[Neu5Ac(a2-6)Gal(b1-4)GlcNAc(b1-3)Gal(b1-4)GlcNAc(b1-6)]GalNAc
# In short: as §1
# [3] = biological target: Neu5Ac(a2-6)Gal(b1-4)GlcNAc(b1-3)Gal(b1-4)GlcNAc(b1-6)[Gal(b1-3)]GalNAc
# In short: as §1
# [4] = biological target: Neu5Ac(a2-6)Gal(b1-4)GlcNAc(b1-3)Gal(b1-4)[Fuc(a1-3)]GlcNAc(b1-3)Gal(b1-4)[Fuc(a1-3)]GlcNAc
# In short: as §1
# [5] = biological target: Neu5Ac(a2-6)Gal(b1-4)GlcNAc(b1-3)GalNAc
# In short: as §1
# [6] = biological target: Neu5Ac(a2-6)Gal(b1-4)GlcNAc(b1-3)[Neu5Ac(a2-6)Gal(b1-4)GlcNAc(b1-6)]GalNAc
# In short: as §1
# [7] = biological target: Neu5Ac(a2-6)Gal(b1-4)GlcNAc(b1-6)GalNAc
# In short: as §1
# [8] = biological target: Neu5Ac(a2-6)Gal(b1-4)GlcNAc(b1-6)[Gal(b1-3)GlcNAc(b1-3)]Gal(b1-4)Glc
# In short: as §1
# [9] = biological target: Neu5Ac(a2-6)Gal(b1-4)GlcNAc(b1-6)[Gal(b1-3)]GalNAc
# In short: as §1
# [10] = biological target: Neu5Ac(a2-6)Gal(b1-4)GlcNAc6S
# In short: as §1
# [11] = biological target: Neu5Ac(a2-6)GalNAc
# In short: as §1
# [12] = biological target: Neu5Ac(a2-6)GalNAc(b1-4)GlcNAc
# In short: as §1
# [13] = biological target: Neu5Ac(a2-6)GalNAc(b1-4)GlcNAc6S
# In short: as §1
# [14] = biological target: Neu5Ac(a2-6)GlcNAc(b1-4)GlcNAc
# In short: as §1
# [15] = biological target: Neu5Ac(a2-6)GlcNAc(b1-4)GlcNAc(b1-4)GlcNAc
# In short: as §1
# [16] = biological target: Neu5Ac(a2-8)Neu5Ac
# In short: as §1
# [17] = biological target: Neu5Ac(a2-8)Neu5Ac(a2-3)Gal(b1-3)GalNAc(b1-4)[Neu5Ac(a2-3)]Gal(b1-4)Glc
# In short: as §1
# [18] = biological target: Neu5Ac(a2-8)Neu5Ac(a2-3)Gal(b1-3)GalNAc(b1-4)[Neu5Ac(a2-8)Neu5Ac(a2-3)]Gal(b1-4)Glc
# In short: as §1
# [19] = biological target: Neu5Ac(a2-8)Neu5Ac(a2-3)Gal(b1-4)Glc
# In short: as §1
# [20] = biological target: Neu5Ac(a2-8)Neu5Ac(a2-3)Gal(b1-4)GlcNAc
# In short: as §1
# [21] = biological target: Neu5Ac(a2-8)Neu5Ac(a2-3)[Gal(b1-3)GalNAc(b1-4)]Gal(b1-4)Glc
# In short: as §1
# [22] = biological target: Neu5Ac(a2-8)Neu5Ac(a2-3)[GalNAc(b1-4)]Gal(b1-4)Glc
# In short: as §1
# [23] = biological target: Neu5Ac(a2-8)Neu5Ac(a2-8)Neu5Ac
# In short: as §1
# [24] = biological target: Neu5Ac(a2-8)Neu5Ac(a2-8)Neu5Ac(a2-3)Gal(b1-4)Glc
# In short: as §1
# [25] = biological target: Neu5Ac(a2-8)Neu5Ac(a2-8)Neu5Ac(a2-3)[Gal(b1-3)GalNAc(b1-4)]Gal(b1-4)Glc
# In short: as §1
# [26] = biological target: Neu5Ac(a2-8)Neu5Ac(a2-8)Neu5Ac(a2-3)[GalNAc(b1-4)]Gal(b1-4)Glc
# In short: as §1
# [27] = biological target: Neu5Ac(a2-8)Neu5Ac(a2-8)Neu5Ac(a2-8)Neu5Ac(a2-3)[GalNAc(b1-4)]Gal(b1-4)Glc
# In short: as §1
# [28] = biological target: Neu5Ac(a2-8)Neu5Gc(a2-3)Gal(b1-4)GlcNAc
# In short: as §1
# [29] = biological target: Neu5Ac(b2-6)Gal(b1-4)GlcNAc
# In short: as §1
# [30] = biological target: Neu5Ac(b2-6)GalNAc
# In short: as §1
# [31] = biological target: Neu5Ac9Ac(a2-3)Gal(b1-3)GlcNAc
# In short: as §1
# [32] = biological target: Neu5Ac9Ac(a2-3)Gal(b1-4)GlcNAc
# In short: as §1
# [33] = biological target: Neu5Ac9Ac(a2-6)Gal(b1-4)GlcNAc
# In short: as §1
# [34] = biological target: Neu5Gc(a2-3)Gal(b1-3)GlcNAc
# In short: as §1
# [35] = biological target: Neu5Gc(a2-3)Gal(b1-3)[Fuc(a1-4)]GlcNAc
# In short: as §1
# [36] = biological target: Neu5Gc(a2-3)Gal(b1-4)Glc
# In short: as §1
# [37] = biological target: Neu5Gc(a2-3)Gal(b1-4)GlcNAc
# In short: as §1
# [38] = biological target: Neu5Gc(a2-3)Gal(b1-4)GlcNAc(b1-3)Gal(b1-4)GlcNAc(b1-2)Man(a1-3)[Neu5Gc(a2-3)Gal(b1-4)GlcNAc(b1-3)Gal(b1-4)GlcNAc(b1-2)Man(a1-6)]Man(b1-4)GlcNAc(b1-4)GlcNAc
# In short: as §1
# [39] = biological target: Neu5Gc(a2-3)Gal(b1-4)[Fuc(a1-3)]GlcNAc
# In short: as §1
# [40] = biological target: Neu5Gc(a2-6)Gal(b1-4)GlcNAc
# In short: as §1
# [41] = biological target: Neu5Gc(a2-6)GalNAc
# In short: as §1
# [42] = biological target: Neu5Gc(a2-8)Neu5Ac(a2-3)Gal(b1-4)GlcNAc
# In short: as §1
# [43] = biological target: Neu5Gc(a2-8)Neu5Gc(a2-3)Gal(b1-4)GlcNAc
# In short: as §1
# [44] = biological target: Neu5Gc(a2-8)Neu5Gc(a2-3)Gal(b1-4)GlcNAc(b1-3)Gal(b1-4)GlcNAc
# In short: as §1
# [45] = biological target: Neu5Gc(a2-8)Neu5Gc(a2-6)Gal(b1-4)GlcNAc
# In short: as §1
# [46] = biological target: Neu5Gc(b2-6)Gal(b1-4)GlcNAc
# In short: as §1
binder,measurement,setting,value
EUL D1A first (Oryza sativa) (protein) MFGFGHHHNQAPAAPSDPNQIFKIFCRANENYCLTVRDSAVVLAPVNPKDEHQHWFKDMRFSTKVKDGEGMPAFALVNKATGLAVKHSLGQSHPVKLVPFNPEYEDASVLWTESKDVGKGFRCIRMVNNTRLNLDAFHGDKDHGGVRDGTTVVLWEWCKGDNQSWKILPWGPEAHSSSPGAATILEQKLISEEDLNSAVDHHHHHH,glycan array binding signal (z-score),[1],-0.07
same,glycan array binding signal (z-score),[2],0.569
same,glycan array binding signal (z-score),[3],1.9
same,glycan array binding signal (z-score),[4],-0.6
same,glycan array binding signal (z-score),[5],-0.718
same,glycan array binding signal (z-score),[6],0.419
same,glycan array binding signal (z-score),[7],-0.155
same,glycan array binding signal (z-score),[8],-0.056
same,glycan array binding signal (z-score),[9],-0.012
same,glycan array binding signal (z-score),[10],-0.102
same,glycan array binding signal (z-score),[11],-0.509
same,glycan array binding signal (z-score),[12],-0.657
same,glycan array binding signal (z-score),[13],0.002
same,glycan array binding signal (z-score),[14],-1.21
same,glycan array binding signal (z-score),[15],-0.07
same,glycan array binding signal (z-score),[16],0.85
same,glycan array binding signal (z-score),[17],1.17
same,glycan array binding signal (z-score),[18],-0.377
same,glycan array binding signal (z-score),[19],-0.984
same,glycan array binding signal (z-score),[20],-0.934
same,glycan array binding signal (z-score),[21],-0.821
same,glycan array binding signal (z-score),[22],1.09
same,glycan array binding signal (z-score),[23],-0.007
same,glycan array binding signal (z-score),[24],0.4
same,glycan array binding signal (z-score),[25],-0.295
same,glycan array binding signal (z-score),[26],-0.965
same,glycan array binding signal (z-score),[27],-0.11
same,glycan array binding signal (z-score),[28],-1.33
same,glycan array binding signal (z-score),[29],-0.988
same,glycan array binding signal (z-score),[30],0.331
same,glycan array binding signal (z-score),[31],-0.753
same,glycan array binding signal (z-score),[32],0.821
same,glycan array binding signal (z-score),[33],-0.177
same,glycan array binding signal (z-score),[34],-0.58
same,glycan array binding signal (z-score),[35],-1.08
same,glycan array binding signal (z-score),[36],-0.152
same,glycan array binding signal (z-score),[37],0.3
same,glycan array binding signal (z-score),[38],-0.561
same,glycan array binding signal (z-score),[39],-0.04
same,glycan array binding signal (z-score),[40],1.52
same,glycan array binding signal (z-score),[41],2.42
same,glycan array binding signal (z-score),[42],0.111
same,glycan array binding signal (z-score),[43],-0.766
same,glycan array binding signal (z-score),[44],-0.654
same,glycan array binding signal (z-score),[45],0.518
same,glycan array binding signal (z-score),[46],0.976
